Data source: PubChem BioAssay AID1259405 (NCATS, 2018)
Test: 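Mouse-designed siRNAs used to find CHO productivity engineering targets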 (primary screen). Cell system: Chinese hamster CHO-K1 ovary cells with stable secreted eGFP expression. Reagent: single siRNA against mouse genes, 0.8 pmol siRNA per well (2 µl of 400 nM stock). Timing: 3 days. Measured: 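Percent of the per-plate non-targeting control median for intracellular GFP per well by laser scanning cytometry and for cell viability by ATP luminescence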. Reading the numbers: GFP, % of control: higher = more GFP per well, higher productivity; viability (ATP), % of control: higher = more viable cells (more ATP). Rule for the call: 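Called active when intracellular GFP, relative to negative control, is at or above 120%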.
Here is an unselected part of about 50,000 reagents. Over the whole deposit, about 4,000 (8%) are marked active. 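Mouse siRNA library applied to hamster cells; one well for each siRNA.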 Unmarked entries are inactive. Reagents against one gene are numbered here.

| target gene | reagent | GFP, % of control | viability (ATP), % of control |
| --- | --- | --- | --- |
| Lrrc24 (leucine rich repeat containing 24) | 1 | 119 | 70.2 |
| Lrrc24 (leucine rich repeat containing 24) | 2 | 104 | 89.8 |
| Lrrc24 (leucine rich repeat containing 24) | 3 | 51.1 | 56.6 |
| Tmem100 (transmembrane protein 100) | 1 | 64.2 | 83.9 |
| Tmem100 (transmembrane protein 100) | 2 | 93.7 | 94.7 |
| Tmem100 (transmembrane protein 100) | 3 | 43 | 69.4 |
| Dscaml1 (DS cell adhesion molecule like 1) | 1 | 70.8 | 71.3 |
| Dscaml1 (DS cell adhesion molecule like 1) | 2 | 84.1 | 75.5 |
| Dscaml1 (DS cell adhesion molecule like 1) | 3 | 109 | 99.5 |
| Gvin1 (GTPase, very large interferon inducible 1) | 1 | 66.8 | 78.9 |
| Gvin1 (GTPase, very large interferon inducible 1) | 2 | 60.6 | 73.3 |
| Gvin1 (GTPase, very large interferon inducible 1) | 3 | 67.3 | 85.6 |
| Timmdc1 | 1 | 73.2 | 73.9 |
| Timmdc1 | 2 | 61.7 | 66.6 |
| Timmdc1 | 3 | 74.1 | 92.3 |
| Ccdc33 (coiled-coil domain containing 33) | 1 | 57.6 | 68.3 |
| Ccdc33 (coiled-coil domain containing 33) | 2 | 62.2 | 56.4 |
| Ccdc33 (coiled-coil domain containing 33) | 3 | 114 | 55.6 |
| Fbxo42 (F-box protein 42) | 1 | 67.6 | 74.3 |
| Fbxo42 (F-box protein 42) | 2 | 66.5 | 66.4 |
| Fbxo42 (F-box protein 42) | 3 | 85.8 | 88.3 |
| Alg13 (asparagine-linked glycosylation 13) | 1 | 69.2 | 67 |
| Alg13 (asparagine-linked glycosylation 13) | 2 | 61.4 | 40.7 |
| Alg13 (asparagine-linked glycosylation 13) | 3 | 76.6 | 65.4 |
| Tm4sf4 (transmembrane 4 superfamily member 4) | 1 | 72.9 | 64.4 |
| Tm4sf4 (transmembrane 4 superfamily member 4) | 2 | 96.1 | 101 |
| Tm4sf4 (transmembrane 4 superfamily member 4) | 3 | 96.3 | 80.7 |
| Rwdd3 (RWD domain containing 3) | 1 | 93.2 | 89.5 |
| Rwdd3 (RWD domain containing 3) | 2 | 82.3 | 63.3 |
| Rwdd3 (RWD domain containing 3) | 3 | 154 (active) | 78.1 |
| Rwdd3 (RWD domain containing 3) | 4 | 71 | 51.1 |
| Rwdd3 (RWD domain containing 3) | 5 | 62.6 | 79.2 |
| Rwdd3 (RWD domain containing 3) | 6 | 81.1 | 86.4 |
| Slc6a1 | 1 | 79.4 | 63.5 |
| Slc6a1 | 2 | 109 | 61.4 |
| Slc6a1 | 3 | 104 | 65 |

4 entries already listed, sorted by “viability (ATP), % of control”, lowest first.
| target gene | reagent | GFP, % of control | viability (ATP), % of control |
| --- | --- | --- | --- |
| Tmem100 (transmembrane protein 100) | 3 | 43 | 69.4 |
| Dscaml1 (DS cell adhesion molecule like 1) | 1 | 70.8 | 71.3 |
| Dscaml1 (DS cell adhesion molecule like 1) | 2 | 84.1 | 75.5 |
| Dscaml1 (DS cell adhesion molecule like 1) | 3 | 109 | 99.5 |
